Laboratory results as given in article PMC7308332.
Results are given in words; binding and its absence hold for the method and conditions named. For some of these results: In cells and extracts the contact can be indirect. Some binding calls cover weakened binding; strength is not graded here. Tags and fused reporters may be left off the sequences shown.

T1: LexA-Cdc24 (two-hybrid bait) (S. cerevisiae) (UniProt P11433)
T1 sequence: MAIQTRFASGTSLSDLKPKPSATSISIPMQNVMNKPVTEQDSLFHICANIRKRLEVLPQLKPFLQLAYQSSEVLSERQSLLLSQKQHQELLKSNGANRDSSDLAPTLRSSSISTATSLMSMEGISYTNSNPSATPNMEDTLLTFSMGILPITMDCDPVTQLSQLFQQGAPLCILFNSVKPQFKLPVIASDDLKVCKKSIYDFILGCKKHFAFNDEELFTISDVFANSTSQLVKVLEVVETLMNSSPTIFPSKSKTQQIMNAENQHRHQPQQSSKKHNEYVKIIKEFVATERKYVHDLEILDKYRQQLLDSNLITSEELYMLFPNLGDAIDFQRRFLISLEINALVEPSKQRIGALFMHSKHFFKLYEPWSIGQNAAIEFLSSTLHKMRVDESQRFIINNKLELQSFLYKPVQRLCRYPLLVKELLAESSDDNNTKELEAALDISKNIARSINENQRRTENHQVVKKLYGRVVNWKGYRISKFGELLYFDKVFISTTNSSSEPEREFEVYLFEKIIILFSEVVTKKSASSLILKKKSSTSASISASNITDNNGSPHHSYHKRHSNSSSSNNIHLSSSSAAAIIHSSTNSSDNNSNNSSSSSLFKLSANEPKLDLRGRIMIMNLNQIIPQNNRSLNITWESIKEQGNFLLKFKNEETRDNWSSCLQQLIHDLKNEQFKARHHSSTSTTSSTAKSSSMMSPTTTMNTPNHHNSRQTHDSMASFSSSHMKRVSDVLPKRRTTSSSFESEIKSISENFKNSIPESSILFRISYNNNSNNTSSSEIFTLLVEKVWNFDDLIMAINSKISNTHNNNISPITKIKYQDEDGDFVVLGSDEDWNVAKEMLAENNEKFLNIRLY

T2: Cdc24-GFP (S. cerevisiae) (UniProt P11433)
T2 sequence: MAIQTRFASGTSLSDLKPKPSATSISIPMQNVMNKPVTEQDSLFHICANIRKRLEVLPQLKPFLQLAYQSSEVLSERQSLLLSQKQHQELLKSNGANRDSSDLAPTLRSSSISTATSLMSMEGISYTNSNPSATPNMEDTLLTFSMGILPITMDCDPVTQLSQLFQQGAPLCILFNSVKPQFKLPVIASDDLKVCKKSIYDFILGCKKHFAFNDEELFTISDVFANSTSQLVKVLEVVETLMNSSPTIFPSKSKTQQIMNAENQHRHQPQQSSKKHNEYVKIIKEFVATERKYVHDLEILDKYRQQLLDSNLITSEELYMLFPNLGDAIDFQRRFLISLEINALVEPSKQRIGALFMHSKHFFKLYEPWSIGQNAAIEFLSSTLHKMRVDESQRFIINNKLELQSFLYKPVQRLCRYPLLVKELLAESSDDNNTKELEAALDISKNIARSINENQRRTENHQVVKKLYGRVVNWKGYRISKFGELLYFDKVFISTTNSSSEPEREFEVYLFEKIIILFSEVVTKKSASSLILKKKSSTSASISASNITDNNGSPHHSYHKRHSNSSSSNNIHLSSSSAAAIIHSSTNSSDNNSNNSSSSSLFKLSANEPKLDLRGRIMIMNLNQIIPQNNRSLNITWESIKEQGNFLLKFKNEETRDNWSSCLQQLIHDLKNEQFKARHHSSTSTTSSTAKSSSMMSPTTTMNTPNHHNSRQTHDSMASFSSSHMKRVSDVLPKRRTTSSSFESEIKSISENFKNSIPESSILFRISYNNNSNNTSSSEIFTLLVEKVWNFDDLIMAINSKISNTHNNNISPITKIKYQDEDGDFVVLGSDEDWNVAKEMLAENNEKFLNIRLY


Columns and labels:
[1] = biological target: T1, LexA-Cdc24 (two-hybrid bait) (S. cerevisiae); experiment: two-hybrid; LexA bait (pEG202) and B42AD-HA preys (pJG4-5) in EGY48 with LexAop-LacZ reporter (pSH18-34); patches on raffinose/galactose X-Gal plates, overnight at 28 °C; confirmed by a liquid β-galactosidase assay
[2] = biological target: T2, Cdc24-GFP (S. cerevisiae); experiment: co-IP; Cdc24-GFP recovered with GFP-TRAP_MA beads (1 h, 4 °C) from crude extracts of nocodazole-arrested and logarithmically growing cells; IP-buffer 50 mM Tris pH 7.5, 150 mM NaCl, 1% NP-40; immunoblot with antibodies against GFP or Ras2

| Binder | binding [1] | binding [2] |
| --- | --- | --- |
| B42AD-HA-Ras2 wild type (two-hybrid prey) (protein, UniProt P01120 1-322) MPLNKSNIREYKLVVVGGGGVGKSALTIQLTQSHFVDEYDPTIEDSYRKQVVIDDEVSILDILDTAGQEEYSAMREQYMRNGEGFLLVYSITSKSSLDELMTYYQQILRVKDTDYVPIVVVGNKSDLENEKQVSYQDGLNMAKQMNAPFLETSAKQAINVEEAFYTLARLVRDEGGKYNKTLTENDNSKQTSQDTKGSGANSVPRNSGGHRKMSNAANGKNVNSSTTVVNARNASIESKTGLAGNQATNGKTQTDRTNIDNSTGQAGQANAQSANTVNNRVNNNSKAGQVSNAKQARKQQAAPGGNTSEASKSGSGGCCIIS | binds |  |
| B42AD-HA-Ras2-G19V, constitutively active (two-hybrid prey) (protein, UniProt P01120 1-322) MPLNKSNIREYKLVVVGGVGVGKSALTIQLTQSHFVDEYDPTIEDSYRKQVVIDDEVSILDILDTAGQEEYSAMREQYMRNGEGFLLVYSITSKSSLDELMTYYQQILRVKDTDYVPIVVVGNKSDLENEKQVSYQDGLNMAKQMNAPFLETSAKQAINVEEAFYTLARLVRDEGGKYNKTLTENDNSKQTSQDTKGSGANSVPRNSGGHRKMSNAANGKNVNSSTTVVNARNASIESKTGLAGNQATNGKTQTDRTNIDNSTGQAGQANAQSANTVNNRVNNNSKAGQVSNAKQARKQQAAPGGNTSEASKSGSGGCCIIS | binds |  |
| endogenous Ras2 (protein, UniProt P01120 1-322) MPLNKSNIREYKLVVVGGGGVGKSALTIQLTQSHFVDEYDPTIEDSYRKQVVIDDEVSILDILDTAGQEEYSAMREQYMRNGEGFLLVYSITSKSSLDELMTYYQQILRVKDTDYVPIVVVGNKSDLENEKQVSYQDGLNMAKQMNAPFLETSAKQAINVEEAFYTLARLVRDEGGKYNKTLTENDNSKQTSQDTKGSGANSVPRNSGGHRKMSNAANGKNVNSSTTVVNARNASIESKTGLAGNQATNGKTQTDRTNIDNSTGQAGQANAQSANTVNNRVNNNSKAGQVSNAKQARKQQAAPGGNTSEASKSGSGGCCIIS |  | binds |
| B42AD-HA-Ras2-S24N, dominant negative (two-hybrid prey) (protein, UniProt P01120 1-322) MPLNKSNIREYKLVVVGGGGVGKNALTIQLTQSHFVDEYDPTIEDSYRKQVVIDDEVSILDILDTAGQEEYSAMREQYMRNGEGFLLVYSITSKSSLDELMTYYQQILRVKDTDYVPIVVVGNKSDLENEKQVSYQDGLNMAKQMNAPFLETSAKQAINVEEAFYTLARLVRDEGGKYNKTLTENDNSKQTSQDTKGSGANSVPRNSGGHRKMSNAANGKNVNSSTTVVNARNASIESKTGLAGNQATNGKTQTDRTNIDNSTGQAGQANAQSANTVNNRVNNNSKAGQVSNAKQARKQQAAPGGNTSEASKSGSGGCCIIS | no binding |  |
